Reference: PubChem BioAssay AID588497 (NMMLSC, 2011)
The campaign covered roughly 360,000 compounds. About 780 (0.22%) were called active. Inconclusive means that the source gave no clear call. Such entries were picked first, then a sample of the others. No stated cut-off is given here; in the data, active means inhibition above about 35% (passing the limit was not always enough); inconclusive means no clear call, values can overlap the other calls.

system: Botulinum neurotoxin type F light chain protease (Clostridium botulinum); experiment: BoNT/F light chain protease inhibitors, primary screen, biochemical, flow cytometry, MLPCN library (AID 588497); conditions: Multiplex microsphere protease cleavage assay, at 10 µM, stronger effect = higher value; further: plate controls were buffer without enzyme for full effect and enzyme alone for no effect

Q: Which inhibition does the source give for `COCC(=O)/C=C1\Sc2ccccc2N1C` here?
A: inactive: -2.1%

Q: How did the inhibition turn out when `CCC(=O)NC1(C(F)(F)F)C(=O)Nc2c1c(=O)[nH]c(=O)n2CC(C)C` (configuration not stated) was run?
A: inconclusive: -34.6%

Q: `CCOc1cccc2sc(=NC(=O)c3ccc(S(=O)(=O)N4CCOCC4)cc3)n(C)c12` was tested. Which inhibition did it give?
A: inactive: 2.6%

Q: `COc1ccc(S(=O)(=O)N2CCC3(CC2)OCCN3S(=O)(=O)c2cccs2)cc1` was tested. Which inhibition did it give?
A: inconclusive: -1.7%

Q: `O=C1[C@@H]2C(c3cccnc3)=NO[C@@H]2C(=O)N1c1ccc(Br)cc1` was tested. Which inhibition did it give?
A: inconclusive: -39%

Q: Which inhibition does the source give for `CC(=O)c1ccc(NC(=O)CCCN2C(=O)C(c3ccccc3)Oc3cccnc32)cc1` (configuration not stated) here?
A: inactive: -0.6%

Q: `O=C(NCCCN1CCCC1=O)c1c(O)nc2sccn2c1=O` was tested. Which inhibition did it give?
A: inconclusive: 1.9%

Q: How did the inhibition turn out when `CC(C)(C)c1cc(NC(=O)NN2CCOCC2)nn1-c1c(Cl)cc(Cl)cc1Cl` was run?
A: inconclusive: 22.9%

Q: Which inhibition does the source give for `N/C(=N\O)c1ccc(Oc2ccccc2Cl)c([N+](=O)[O-])c1` here?
A: inconclusive: -13.8%

Q: For `CN1CC(C(=O)c2ccccc2)C(C(=O)c2ccccc2)C1` (configuration not stated), which inhibition is on record?
A: inconclusive: -71.9%

Q: `Cc1cc(NC(=O)CCN2CCN(CCO)CC2)ccc1Br` was tested. Which inhibition did it give?
A: inconclusive: 10.9%

Q: `CC1CCCN(C2(O)C(=O)Nc3ccc([N+](=O)[O-])cc32)C1` (configuration not stated) was tested. Which inhibition did it give?
A: inconclusive: -16.6%

Q: How did the inhibition turn out when `O=C1NC(=S)NC(=O)C1=Cc1ccc2c(c1)CCN2CCCCl` was run?
A: inconclusive: -92%

Q: Which inhibition does the source give for `COc1ccc(-c2nc3n(c2C)CCC3)cc1` here?
A: inconclusive: -4.6%

Q: Which inhibition does the source give for `COC(=O)Nc1ccc2c(c1)N(C(=O)CCCl)c1ccccc1S2` here?
A: inactive: 22.2%

Q: How did the inhibition turn out when `Cc1cccc(NC(=O)OC2CN3CCC2CC3)c1` (configuration not stated) was run?
A: inconclusive: -149%

Q: Which inhibition does the source give for `O=C(NCc1cccnc1)c1ccc2c(=O)n(CCCN3CCCC3=O)c(=S)[nH]c2c1` here?
A: inconclusive: -15.1%

Q: For `O=C(Nc1cccc(S(=O)(=O)N2CCCCCC2)c1)C1CCN(C(=O)c2ccc(Cl)cc2)CC1`, which inhibition is on record?
A: inconclusive: 10.7%

Q: With `CC(C)Oc1ccc(S(=O)(=O)N2CCCCC2)cc1NC(=O)C1CCCC1` as the compound, how does the inhibition read?
A: inconclusive: 4%

Q: For `O=C(COc1ccccc1)N1CCc2ccccc2C1`, which inhibition is on record?
A: inconclusive: 26%

Q: Which inhibition does the source give for `COc1ccc(CCNC(=O)CN(C)S(=O)(=O)c2ccc(OC)cc2)cc1` here?
A: inconclusive: -14.6%

Q: For `COc1ccc(CNC(=O)COc2cccnc2[N+](=O)[O-])cc1OC`, which inhibition is on record?
A: inactive: 13.8%

Q: `NS(=O)(=O)c1ccc(CCNC/C=C/c2ccccc2)cc1` was tested. Which inhibition did it give?
A: inconclusive: -12.5%

Q: `Cc1nnc(Nc2ccc(Cl)cc2)s1` was tested. Which inhibition did it give?
A: inconclusive: 62.8%

Q: `O=C(CNc1cccc(S(=O)(=O)N2CCCCC2)c1)Nc1ccc(C(F)(F)F)cc1` was tested. Which inhibition did it give?
A: inactive: -1.8%

Q: How did the inhibition turn out when `Oc1ccccc1-c1nc(NCc2ccco2)c2ccccc2n1` was run?
A: inconclusive: -2.5%

Q: For `Nc1c(-c2cccs2)cnn1-c1nc(-c2ccc(Cl)cc2Cl)cs1`, which inhibition is on record?
A: inactive: -4%

Q: For `COc1ccc(Cl)cc1/C=C1/C(=O)ON=C1C`, which inhibition is on record?
A: inconclusive: 12.2%

Q: Which inhibition does the source give for `CCCC(=O)C1=C(N(C)c2ccccc2)CC(C)(C)CC1=O` here?
A: inconclusive: -3.4%

Q: How did the inhibition turn out when `COc1ccc(S(=O)(=O)N2CCOCC2)cc1NC(=O)CN1CCN(C)CC1` was run?
A: inconclusive: -1.7%

Q: How did the inhibition turn out when `COc1ccc2c(c1)cc(C)c1nnc(SCC(=O)N(C)c3nc(-c4ccccc4)cs3)n12` was run?
A: inconclusive: -147%

Q: Which inhibition does the source give for `O=C1NN(c2ccccc2)C(=O)/C1=C\c1ccccc1` here?
A: inconclusive: 12.1%

Q: `C/C(Cc1ccccc1)=N\NC(=O)CNC(=O)c1ccc(Cl)cc1Cl` was tested. Which inhibition did it give?
A: active: 36.4%

Q: How did the inhibition turn out when `Cc1cccc(NC(=O)c2cccc(NC(=O)c3ccccc3)c2)n1` was run?
A: inconclusive: 12.8%

Q: `COc1cc(NC(=O)c2cc(-c3ccccc3Cl)on2)cc(OC)c1OC` was tested. Which inhibition did it give?
A: inconclusive: -10.1%

Q: `CCCN1C(=O)/C(=C2\SC(N3CCCCC3)=NC2=O)c2ccccc21` was tested. Which inhibition did it give?
A: inconclusive: -0.4%

Q: For `COc1cccc(CNc2ncc(C(=O)Nc3cc(OC)c(OC)c(OC)c3)c(C)n2)c1`, which inhibition is on record?
A: inconclusive: -18.6%

Q: How did the inhibition turn out when `O=C(Nc1ccccn1)C1CCN(C(=O)c2ccc(Cl)cc2)CC1` was run?
A: inactive: 0.5%

Q: With `CCN(CC(=O)Nc1c(F)cccc1F)C(=O)CSc1nc(C)cc(C)n1` as the compound, how does the inhibition read?
A: inactive: 5.9%

Q: With `COc1ccc(NC(=O)CCCCCN2C(=O)c3cccc([N+](=O)[O-])c3C2=O)c(OC)c1` as the compound, how does the inhibition read?
A: inconclusive: -2.8%

Q: `Nc1nnnn1CC(=O)OCc1cccc(Br)c1` was tested. Which inhibition did it give?
A: inactive: -2.3%

Q: For `CCN(CC)S(=O)(=O)c1ccc(OC)c(NC(=O)/C=C/c2ccco2)c1`, which inhibition is on record?
A: active: 34.7%

Q: With `O=C(O)COCC(=O)N1CCN(C(c2ccccc2)c2ccccc2)CC1` as the compound, how does the inhibition read?
A: inconclusive: -118%

Q: How did the inhibition turn out when `COc1ccc(CCn2c(=N)c(C(=O)NC3CCCC3)cc3c(=O)n4cccc(C)c4nc32)cc1` was run?
A: inactive: 14.6%

Q: With `O=C(COc1ccc(Cl)cc1)NCc1ccccc1` as the compound, how does the inhibition read?
A: inconclusive: 17.4%

Q: `COc1ccc(NC(=O)c2cc3ccccc3[nH]2)cc1` was tested. Which inhibition did it give?
A: inconclusive: -1.3%

Q: For `COc1ccccc1NC(=S)NNC(=O)c1ccc(O)cc1`, which inhibition is on record?
A: inconclusive: -55.2%

Q: For `O=C(c1ccc2c(=O)n3c(nc2c1)CCCCC3)N1CCN(c2ccccc2)CC1`, which inhibition is on record?
A: inactive: 8.2%

Q: How did the inhibition turn out when `COc1ccc(N(CC(O)CN2CCCCC2)S(=O)(=O)c2ccc(C)cc2)cc1` (configuration not stated) was run?
A: inactive: 4%

Q: Which inhibition does the source give for `COc1cc2oc(=O)c3c(c2cc1OCC(=O)c1c(C)n(C)c2ccccc12)CCCC3` here?
A: inactive: -0.8%

Q: `COc1ccc(CN2C(=O)c3ccccc3C2=O)cc1` was tested. Which inhibition did it give?
A: inconclusive: 30.3%

Q: For `O=C1OC(Nc2ncccn2)c2ccccc21` (configuration not stated), which inhibition is on record?
A: inactive: 5.3%

Q: With `C/C(=N\NC(=O)c1ccncc1)c1c(O)n(Cc2ccccc2)c(=O)[nH]c1=O` as the compound, how does the inhibition read?
A: inconclusive: -9.9%

Q: With `COc1ccc(S(=O)(=O)N2CCC3CC2c2c(-c4ccc(C(F)(F)F)cc4)cccc23)cc1` (configuration not stated) as the compound, how does the inhibition read?
A: inactive: 5.3%

Q: Which inhibition does the source give for `O=C(NC12CC3CC(CC(C3)C1)C2)c1ccco1` here?
A: inconclusive: 36.6%

Q: `O=C(N/N=C/c1c(F)c(F)c(F)c(F)c1F)c1ccc(Cn2cc(Br)cn2)o1` was tested. Which inhibition did it give?
A: inactive: 12.1%

Q: How did the inhibition turn out when `COc1ccc2c(N)c(C(=O)NN)[nH]c2c1` was run?
A: inconclusive: -316%

Q: `CCCCC(=O)Nc1ccc2oc(-c3ccncc3)nc2c1` was tested. Which inhibition did it give?
A: inactive: 3.9%

Q: For `CCNC(=O)C1(C)CCCN(CCOc2ccc(OC)cc2)C1` (configuration not stated), which inhibition is on record?
A: inactive: -2.1%

Q: For `O=C1OCCN1N=Cc1ccco1`, which inhibition is on record?
A: inactive: -22.7%

Q: With `Cc1ccccc1CN1CCN(C(=O)c2cccc3ccccc23)CC1` as the compound, how does the inhibition read?
A: inconclusive: 4.5%

Q: Which inhibition does the source give for `O=C1CC(C(=O)N2CCN(c3ccc(F)cc3)CC2)CN1CCc1ccccc1` (configuration not stated) here?
A: inactive: -0.6%

Q: `CC1(C2CC2)NC(=O)NC1=O` (configuration not stated) was tested. Which inhibition did it give?
A: inactive: -0.3%

Q: `CNc1oc(-c2ccc(OCc3ccccc3)cc2)nc1C#N` was tested. Which inhibition did it give?
A: inactive: -3.3%

Q: `CCC(=O)N(CCc1ccccc1)Cc1cc2cc(C)ccc2[nH]c1=O` was tested. Which inhibition did it give?
A: inconclusive: -21%

Q: `Cc1ccc(OCC(O)CN2C(=O)NC(C)(C)C2=O)cc1` (configuration not stated) was tested. Which inhibition did it give?
A: inconclusive: -29.7%

Q: `O=C1/C(=C\c2ccc(Cl)cc2)CCC1CNc1ccc(Cl)cc1` (configuration not stated) was tested. Which inhibition did it give?
A: inactive: 3.4%

Q: `CCC(=O)c1ccc(OC(=O)N2CCOCC2)cc1` was tested. Which inhibition did it give?
A: inconclusive: 6.1%

Q: How did the inhibition turn out when `Cc1cccc(NC(=O)c2cccc(NC(=O)c3ccco3)c2)c1C` was run?
A: inconclusive: -2.8%

Q: `N#C/C(=C\c1ccccc1)C(=O)Nc1ccccn1` was tested. Which inhibition did it give?
A: active: 39.8%

Q: For `O=c1[nH]c(SCc2nc3c(cnn3-c3ccccc3)c(=O)[nH]2)nc2ccccc12`, which inhibition is on record?
A: inconclusive: -0.7%

Q: With `COc1ccccc1OCCNC(=O)Nc1cc(F)c(F)cc1Cl` as the compound, how does the inhibition read?
A: inconclusive: 14.4%

Q: How did the inhibition turn out when `Cc1cc(C)nc(NC(=NCCc2c[nH]c3ccccc23)NC(=O)C(C)(C)C)n1` was run?
A: inconclusive: -24.7%

Q: How did the inhibition turn out when `CC1=Nc2ccccc2NC(=O)C1Sc1nnc(C)s1` (configuration not stated) was run?
A: inconclusive: 27.6%

Q: How did the inhibition turn out when `CCOC(=O)c1sc(NC(=O)CN2CCCC2)c(C(=O)OCC)c1C` was run?
A: inactive: -0.2%

Q: How did the inhibition turn out when `COc1ccc(/C=N/NC(=O)c2ccoc2C)cc1COc1c(C)cccc1C` was run?
A: inconclusive: 12.7%

Q: How did the inhibition turn out when `Cc1ccc2[nH]c3nc(NN)nnc3c2c1` was run?
A: inconclusive: -58.3%

Q: For `CCCCN(Cc1ccccc1)C1CCN(Cc2ccccc2)CC1`, which inhibition is on record?
A: inconclusive: -3%

Q: Which inhibition does the source give for `O=C(Nc1cccc2ccccc12)N1CCCN(c2c(Cl)cncc2Cl)CC1` here?
A: inconclusive: -73.7%

Q: With `N#C/C(=C(\O)c1ccco1)c1ccccn1` as the compound, how does the inhibition read?
A: inactive: -14.5%

Q: Which inhibition does the source give for `CC(=O)c1c(C)[nH]c(C(=O)CN2C(=O)NC(C)(c3ccc4c(c3)OCO4)C2=O)c1C` (configuration not stated) here?
A: inconclusive: 24.8%

Q: How did the inhibition turn out when `Cc1ccc(C(=O)NC2CC(C)(C)NC(C)(C)C2)cc1Cl` was run?
A: inconclusive: -23.9%

Q: For `Cc1ccc(C(=O)N2CCC(C(=O)c3ccc(F)cc3)CC2)cc1`, which inhibition is on record?
A: inconclusive: -25.6%

Q: For `CC(=O)Nc1ccc(-c2ccc(NC(C)=O)cc2)cc1`, which inhibition is on record?
A: inactive: -2.3%

Q: How did the inhibition turn out when `CS(=O)(=O)N(CC(=O)N1CCOCC1)c1cc(C(F)(F)F)ccc1Cl` was run?
A: inconclusive: -15.9%

Q: Which inhibition does the source give for `Cc1nc2c3cc(Cl)ccc3n(CCN3CCOCC3)c2s1` here?
A: inconclusive: 52%

Q: `O=C(NCc1ccco1)NC(=O)c1csc([N+](=O)[O-])c1` was tested. Which inhibition did it give?
A: inconclusive: -10.6%

Q: `COCCNC(=O)c1cc2c(c(-c3cccc(-c4cc5ccccc5o4)c3)n1)[C@H](CCO)N(S(=O)C(C)(C)C)C2` (some centres not stated) was tested. Which inhibition did it give?
A: inactive: -22.4%

Q: `O=C(Cc1cccc(NC(=O)C2CCCN(C(=O)CCc3ccccc3)C2)c1)Nc1cccc(C(=O)N2CCCCC2)c1` (configuration not stated) was tested. Which inhibition did it give?
A: inactive: 1.3%

Q: How did the inhibition turn out when `COc1cccc(-c2nnc3sc(-c4ccco4)nn23)c1` was run?
A: inactive: 5%

Q: How did the inhibition turn out when `Cc1c2n(c3ccccc13)CC/C2=N\O` was run?
A: inconclusive: -10.6%

Q: Which inhibition does the source give for `S=C(NCc1ccco1)Nc1ccccc1Cl` here?
A: inconclusive: 33%
